# Assay results as given in the supplement of paper PMC10735217.
# Where a name gives a salt, the structure may show the parent alone. The list shows a part of the results. This data set is noisy: repeats of one test often differ as much as different tests do.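 Human kidney-derived cells stably carry a construct in which eight TEAD-binding elements drive luciferase, measured by luminescence in a drug-repurposing library screen. A hit is any compound whose signal exceeds the plate mean by more than five robust Z scores.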
# Tested on: HEK293A TEAD-LUC reporter
# Assay: TEAD-luciferase reporter activity (YAP activation), robust Z score vs plate; higher = stronger YAP/TEAD activation
# Conditions: 24 h
Structure (SMILES),TEAD-luciferase reporter activity (compound concentration: 200 nM),TEAD-luciferase reporter activity (compound concentration: 2 uM),TEAD-luciferase reporter activity (compound concentration: 10 uM)
CC1(CCCc2cc(=O)oc3[nH]c(=O)[nH]c(=O)c23)CC1,inactive: 1.98,inactive: -1.66,inactive: -0.403
OCCN1CCN(CCCN2c3ccccc3Sc3ccc(C(F)(F)F)cc32)CC1,inactive: -0.526,,inactive: 0.46
"OCCN1CCN(CCCN2c3ccccc3Sc3ccc(C(F)(F)F)cc32)CC1 [fluphenazine hydrochloride, Corridor Pharmaceuticals-1]",,inactive: -0.41,
CN1C(=O)C(=C(N)c2ccccc2)C(=O)C=C1c1ccccc1,inactive: -0.0439,inactive: -0.495,inactive: -1.08
CCCCC[C@H](O)/C=C/[C@@H]1[C@H]2C/C(=C/CCCC(=O)O)C[C@H]2C[C@H]1O [Carbacyclin],inactive: -1.66,,inactive: 0.218
CCN(CC)Cc1ccc2cc(COC(=O)Nc3ccc(C(=O)NO)cc3)ccc2c1 [ITF2357 (Givinostat)],active: 10.6,,active: 34.4
CCN(CC)Cc1ccc2cc(COC(=O)Nc3ccc(C(=O)NO)cc3)ccc2c1 [Givinostat hydrochloride],,active: 21.7,
O=C(c1cccc(Cl)c1)N1CCC(n2c(=O)[nH]c3ccccc32)CC1,inactive: -0.657,,inactive: 1.2
Clc1ccc2c(N3CCN(CCCN4CCN(c5ccnc6cc(Cl)ccc56)CC4)CC3)ccnc2c1 [Piperaquine],inactive: 0.045,,inactive: 0.56
Nc1nc(=O)n([C@@H]2C=C[C@H](CO)O2)cc1F,inactive: 0.464,inactive: -1.03,inactive: 2.64
O=[N+]([O-])c1ccc(O)c2ncccc12 [Pharmaprojects No. 3064],inactive: -0.267,inactive: -0.932,inactive: 3.14
O=c1[nH]c2ccccc2n1CCCN1CCN(C(c2ccccc2)c2ccccc2)CC1 [oxatomide],inactive: -0.581,inactive: -1.68,inactive: 0.018
CN(C)CCC(O)(c1ccccc1)c1ccccc1Cl (configuration not stated),inactive: 0.903,inactive: -0.433,inactive: 2.42
CC[N+](CC)(CC)CCC(O)(c1ccccc1)C1CCCCC1 (configuration not stated),inactive: -0.763,inactive: -1.04,inactive: -1.81
O=C(C1CCCC1)N1CCC(C(=O)N2CCC(N3CCCC3=O)CC2)CC1,inactive: -0.202,,inactive: 2.56
N[C@@H](Cc1ccc(O)c(O)c1)C(=O)O,inactive: -0.707,,inactive: -0.037
"N[C@@H](Cc1ccc(O)c(O)c1)C(=O)O [levodopa, Acorda Therapeutics]",,inactive: -1.78,
CCCCc1c(-c2ccccc2F)[nH]c2nccnc12,inactive: -0.948,inactive: -0.909,inactive: -0.9
CN(C)CCC(=O)N1Cc2ccccc2CC2(CCCCN2C)C1 (configuration not stated),inactive: -0.174,,active: 5.47
COc1ccc2c(c1OC)C(=O)O[C@@H]2[C@H]1c2c(cc3c(c2OC)OCO3)CCN1C [noscapine],,inactive: -1.45,

Structure (SMILES),TEAD-luciferase reporter activity (compound concentration: 200 nM),TEAD-luciferase reporter activity (compound concentration: 2 uM),TEAD-luciferase reporter activity (compound concentration: 10 uM)
"COc1ccc2c(c1OC)C(=O)O[C@@H]2[C@H]1c2c(cc3c(c2OC)OCO3)CCN1C [noscapine, extended-release]",inactive: -2.98,,inactive: 0.563
C[C@H](CSC(=O)C(C)(C)C)C(=O)N(CC(=O)O)C1CCCC1,inactive: -2.31,inactive: -0.0978,inactive: -0.0516
COc1cccc2c1c(NS(=O)(=O)c1ccc(Cl)s1)nn2Cc1cccc(CNC(=O)C(C)(C)O)c1,inactive: -1.26,inactive: 2.68,inactive: -0.717
CCOC(=O)N1CCN(c2ncnc3cc(OC)c(OC)cc23)CC1,inactive: 2.85,inactive: -0.639,inactive: -1.65
Cc1ccc(S(=O)(=O)NC(=O)NC(C)Cc2ccccc2)cc1 (configuration not stated) [Tosifen],inactive: -1.21,inactive: -1.86,inactive: 0.462
COc1ccc2c(=O)c3ccccc3oc2c1CN1CCCCC1 [mepixanox],inactive: 2.17,inactive: 0.338,inactive: 4.59
COc1ccccc1OCC(O)CNC(C)C (configuration not stated) [levomoprolol],inactive: -1.02,inactive: -1.86,inactive: -1.41
Cc1cc(OCC2(CONC(=N)N)CC2)cc(OS(=O)(=O)c2ccccc2S(C)(=O)=O)c1,inactive: -0.471,inactive: 1.35,inactive: 1.3
[NH3+][Pt-2]1([NH3+])[O]C(=O)C2(CCC2)C(=O)[O]1,,inactive: -1.16,
[NH3+][Pt-2]1([NH3+])[O]C(=O)C2(CCC2)C(=O)[O]1 [Carboplatin],inactive: 0.601,inactive: -2.54,inactive: 1.2
CC(C)NCC(O)COc1cccc2[nH]ccc12 (configuration not stated),inactive: -0.271,,inactive: 0.76
CC(C)NCC(O)COc1cccc2[nH]ccc12 (configuration not stated) [pindolol],,inactive: -1.58,
O=C(CCCN1CCc2[nH]c3ccc(F)cc3c2C1)c1ccc(F)cc1,inactive: -0.214,inactive: -1.27,inactive: 0.759
CCCn1c(=O)c2[nH]c(C3CCC(=O)C3)nc2n(CCC)c1=O (configuration not stated),inactive: -1.55,inactive: 0.0057,inactive: 2.95
COc1cc(C2CCC(c3cc(OC)c(OC)c(OC)c3)S2)cc(OC)c1OC (configuration not stated),inactive: -1.85,inactive: -1.26,inactive: 0.0282
CC(O)(c1ccncc1)c1cnc(-c2ccc(F)cc2)s1 (configuration not stated),inactive: -0.869,inactive: 0.152,inactive: -1.03
CN1C(=N)N(c2ccccc2)CC1=O,inactive: -0.822,inactive: -1.98,inactive: -0.567
CN(C(=O)Nc1ccccc1)C1CCOc2ccccc21 (configuration not stated),inactive: -0.866,,inactive: -0.755
COC(=O)[C@H](C/C=C/c1ccc(N(C)c2ncccn2)cc1)NC(=O)C1CCCCC1,inactive: -1.16,inactive: -1.42,inactive: -1.59
CN1CCN(C2Cc3ccccc3Sc3ccc(Cl)cc32)CC1 (configuration not stated) [clorotepine],,inactive: -0.256,

# As entered above.
# In TEAD-luciferase reporter activity (compound concentration: 2 uM), COc1ccc2c(=O)c3ccccc3oc2c1CN1CCCCC1 [mepixanox] reads inactive: 0.338
# In TEAD-luciferase reporter activity (compound concentration: 10 uM), CCOC(=O)N1CCN(c2ncnc3cc(OC)c(OC)cc23)CC1 reads inactive: -1.65
# In TEAD-luciferase reporter activity (compound concentration: 200 nM), CC(C)NCC(O)COc1cccc2[nH]ccc12 (configuration not stated) reads inactive: -0.271
# In TEAD-luciferase reporter activity (compound concentration: 2 uM), CN1CCN(C2Cc3ccccc3Sc3ccc(Cl)cc32)CC1 (configuration not stated) [clorotepine] reads inactive: -0.256

# (cont.)

Structure (SMILES),TEAD-luciferase reporter activity (compound concentration: 200 nM),TEAD-luciferase reporter activity (compound concentration: 2 uM),TEAD-luciferase reporter activity (compound concentration: 10 uM)
CN1CCN(C2Cc3ccccc3Sc3ccc(Cl)cc32)CC1 (configuration not stated) [(??)-Octoclothepin maleate],inactive: 0.547,,inactive: 3
Nc1[nH]c(=O)ncc1F,inactive: -0.993,,inactive: 0.0127
Nc1[nH]c(=O)ncc1F [Flucytosine],,inactive: -0.234,
CC(C)c1cc(-c2nnc(O)n2-c2ccc3c(ccn3C)c2)c(O)cc1O [ganetespib],,inactive: -0.814,
CC(C)c1cc(-c2nnc(O)n2-c2ccc3c(ccn3C)c2)c(O)cc1O [Ganetespib],inactive: -1.87,,inactive: -2.49
COC(=O)N[C@H](C(=O)N1CC2(CC2)C[C@H]1c1ncc(-c2ccc3c(c2)C(F)(F)c2cc(-c4ccc5nc([C@@H]6[C@H]7CC[C@H](C7)N6C(=O)[C@@H](NC(=O)OC)C(C)C)[nH]c5c4)ccc2-3)[nH]1)C(C)C [Ledipasvir],inactive: -1.99,inactive: -1.38,inactive: 1.25
C=CCCCCCCCCC(=O)O [10-Undecenoic Acid],inactive: -0.408,inactive: -0.441,inactive: 2.67
C[C@]12CCC(=O)C=C1[C@@H]1C[C@@H]1[C@H]1[C@@H]3[C@@H]4C[C@@H]4[C@@]4(CCC(=O)O4)[C@@]3(C)CC[C@@H]12,inactive: 0.855,inactive: -0.744,inactive: 0.401
CCCCc1nc(Cl)c(CO)n1Cc1ccc(-c2ccccc2-c2nnn[nH]2)cc1 [Allisartan],inactive: -0.535,inactive: 0.00776,inactive: 0.0785
C[C@@H]1CN(c2ncc(C(O)CO)cc2Cl)CCN1c1nc2c(-c3cc(F)c(F)c(F)c3)cc(C(F)(F)F)cc2[nH]1 (some centres not stated),inactive: -2.05,inactive: -0.297,inactive: -1.74
COc1ccc(CNC(=O)c2cc(-c3cncc(Cl)c3)cnc2-c2ccccn2)nc1OC,inactive: 1.15,inactive: 2.41,inactive: -1.13
C/C(=C(/OCCOc1ccc(Cl)cc1)c1ccc(Cl)cc1Cl)n1ccnc1,inactive: -2.19,inactive: 0.168,inactive: 1.84
Oc1cc(O)cc(O)c1 [Phloroglucinol],inactive: -0.143,inactive: -0.892,inactive: -1.46
Nc1ccc(C2=NNC(=O)CC2)cc1,inactive: 1.09,inactive: -1.67,inactive: 0.421
C=C[C@]1(C)C[C@@H](OC(=O)CS[C@H]2CCCN(C(=O)[C@H](N)C(C)C)C2)C2(C)[C@H](C)CC[C@]3(CCC(=O)[C@@H]23)[C@@H](C)[C@@H]1O,inactive: -2.72,inactive: -1.68,inactive: -0.863
O=C(Nc1cc(C(F)(F)F)ccc1C(F)(F)F)c1cc(Br)ccc1O,inactive: 2.43,inactive: -1.47,inactive: 0.221
COc1ccnc(CS(=O)c2nc3cc(OC(F)F)ccc3[nH]2)c1OC (configuration not stated) [pantoprazole sodium],inactive: 0.576,inactive: -1.3,inactive: 0.537
CCc1ccc(CSc2ccc(NS(=O)(=O)c3ccc(C)c(C(=O)O)c3)cc2)cc1,inactive: -1.09,inactive: -0.332,inactive: -1.02
NC(=O)NC1N=C([O][Al]([OH])[OH])NC1=O (configuration not stated),inactive: -0.445,,inactive: 0.965
CC(C)C(=O)OC[C@H]1O[C@@H](n2ccc(N)nc2=O)[C@](C)(F)[C@@H]1OC(=O)C(C)C [mericitabine],inactive: -0.225,inactive: 1.26,inactive: 1.67
